Measurements reported in PMC5442318, “Hundreds of dual-stage antimalarial molecules discovered by a functional gametocyte screen” (Nature Communications, 2017).

System: HepG2 cells
Assay: HepG2 cytotoxicity assay
Type: cell-based
Conditions: HepG2 TOX50 vs Pf FGAA IC50
Summary of the method: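 After compound incubation, plates and CellTiter-Glo reagent were brought to room temperature for 30 min. The reagent was then added, and luminescence was read after a 10 min room-temperature stabilization.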

| Compound | Selectivity ratio |
| --- | --- |
| CCc1ccc(C2CCN(CCCCNC(=O)c3ccc(NC(=O)c4ccc(Cl)cc4)cc3)CC2)c(OCCO)c1 [TCMDC-138703] | 2.38 |
| COc1cc2nc(N3CCC(CNC(=O)c4ccc(-c5ccc(C(F)(F)F)cc5)cc4)CC3)nc(N)c2cc1OC [TCMDC-138716] | 5.79 |
| COc1cc2nc(N3CCC(CNC(=O)c4ccc(-c5ccc(Cl)cc5)cc4)CC3)nc(N)c2cc1OC [TCMDC-138718] | 4.74 |
| COC(=O)c1ccc(-c2ccc(C(=O)NCC3CCN(c4nc(N)c5cc(OC)c(OC)cc5n4)CC3)cc2)cc1 [TCMDC-138721] | 6.71 |
| COc1cc2nc(N3CCC(CNC(=O)c4ccc(-c5ccc(-c6noc(C)n6)cc5)cc4)CC3)nc(N)c2cc1OC [TCMDC-138754] | 4.67 |
| COc1cc2nc(N3CCC(CNCc4ccc(-c5ccc(C(F)(F)F)cc5)cc4)CC3)nc(N)c2cc1OC [TCMDC-138757] | 14.62 |
| O=C(NCCCCN1CCC(c2ccc3c(c2OCCN2CCCC2)CCCC3)CC1)c1ccc(-c2ccc(C(F)(F)F)cc2)cc1 [TCMDC-138768] | 2.72 |
| O=C(Nc1ccc(-c2ccccc2)c(OCCN2CCNCC2)c1)c1ccc(-c2ccc(Cl)cc2)cc1 [TCMDC-138818] | 3.60 |
| O=C(NC1CCN(CCN2CCC(c3c[nH]c4ccccc34)CC2)CC1)c1ccc(-c2ccc(C(F)(F)F)cc2)cc1 [TCMDC-138845] | 2.59 |
| CC(C)Cn1cc(C2CCN(CCN3CCC(CNC(=O)c4ccc(-c5ccc(C#N)cc5)cc4)CC3)CC2)c2ccccc21 [TCMDC-138849] | 4.67 |
| CC(C)Cn1cc(C2CCN(CCN3CCC(CNC(=O)c4ccc(-c5ccc(C(F)(F)F)cc5)cc4)CC3)CC2)c2ccccc21 [TCMDC-138852] | 5.47 |
| O=C(NCC1CCN(CCN2CCC(c3cn(CCO)c4ccccc34)CC2)CC1)c1ccc(-c2ccc(C(F)(F)F)cc2)cc1 [TCMDC-138856] | 1.83 |
| COc1c(C2CCN(CCN3CCC(CNC(=O)c4ccc(-c5ccc(C#N)cc5)cc4)CC3)CC2)ccc2c1CCCC2 [TCMDC-138859] | 2.35 |
| O=C(O)C(F)(F)F.O=S(=O)(c1ccccc1)n1ccc2cc(Nc3ncnc4cc(C#C[C@H]5CCCN5)sc34)ccc21 [TCMDC-138913] | 4.71 |
| CC1(C)CC(NCCCCCCCOc2ccc(OCc3ccccc3)cc2)CC(C)(C)N1.Cl [TCMDC-138958] | 2.23 |
| Cl.Clc1ccc(OCCC2CCN(CCCCCCCN3CCC(CCOc4ccc(Cl)c(Cl)c4)CC3)CC2)cc1Cl [TCMDC-138967] | 3.17 |
| CCN1CCC2(c3cccc(OC)c3)Cc3nc4ccccc4c(-c4ccccc4)c3CC2C1 (centres unmarked) [TCMDC-138968] | 23.25 |
| COc1ccc(NC(=O)c2ccc(OCCCCCCCOc3ccc(C(=O)Nc4ccc(OC)c(N5CCN(C)CC5)c4)cc3)cc2)cc1N1CCN(C)CC1.O=C(O)C(=O)O [TCMDC-139007] | 3.14 |
| COc1ccc(NC(=O)c2cccc(Br)c2)cc1N1CCN(CCCCCCCN2CCN(c3cc(NC(=O)c4cccc(Br)c4)ccc3OC)CC2)CC1.Cl [TCMDC-139020] | 5.68 |
| Oc1ccc2[nH]cc(C3CCN(CCCNCc4ccc(-c5ccccc5)cc4)CC3)c2c1 [TCMDC-139047] | 3.91 |
| Cl.Nc1c2c(nc3ccc(NC(=O)CCCCCCc4ccccc4)cc13)CCCC2 [TCMDC-139056] | 2.28 |
| COC(=O)c1ccc(-c2ccc(-c3cccnc3)cc2C)cc1 [TCMDC-139074] | 6.20 |

| Compound | Selectivity ratio |
| --- | --- |
| c1ccc(C23N=C(Nc4nc5ccccc5[nH]4)NC2(c2ccccc2)NC(Nc2nc4ccccc4[nH]2)=N3)cc1 (centres unmarked) [TCMDC-139082] | 411.98 |
| COc1cccc(C23N=C(Nc4nc5ccccc5[nH]4)NC2(c2cccc(OC)c2)NC(Nc2nc4ccccc4[nH]2)=N3)c1 (centres unmarked) [TCMDC-139087] | 437.61 |
| Clc1cccc(C23N=C(Nc4nc5ccccc5[nH]4)NC2(c2ccccc2)NC(Nc2nc4ccccc4[nH]2)=N3)c1 (centres unmarked) [TCMDC-139089] | 284.85 |
| c1ccc(-c2nc(Nc3nc4ccccc4[nH]3)[nH]c2-c2ccccc2)cc1 [TCMDC-139099] | 18.85 |
| Cc1cc2nc(N=C3NC4(c5ccccn5)NC(=Nc5nc6cc(C)c(C)cc6[nH]5)NC4(c4ccccn4)N3)[nH]c2cc1C.O=C(O)C(F)(F)F (centres unmarked) [TCMDC-139105] | 6.73 |
| C=C[C@H]1CN(CCCCCCC)CC[C@H]1CCNc1ccnc2ccc(OC)cc12 [TCMDC-139204] | 1.24 |
| CN1CCN(c2cc3c(cc2Cl)CCN3C(=O)Nc2ccc(NC(=O)c3ccc(C(F)(F)F)cc3)cc2)CC1.Cl [TCMDC-139270] | 5.75 |
| CC(NCCc1cccc(Cl)c1)C(O)c1ccc(OCCCCCCOc2ccc(C(O)C(C)NCCc3cccc(Cl)c3)cc2)cc1 (centres unmarked) [TCMDC-139334] | 2.63 |
| Cc1cc(N)c2cc(NC(=O)/C=C/c3ccc([N+](=O)[O-])cc3)ccc2n1 [TCMDC-139335] | 2.00 |
| Cc1cc(N)c2cc(NC(=O)c3cc(C(F)(F)F)cc(C(F)(F)F)c3)ccc2n1.Cl [TCMDC-139377] | 3.01 |
| O=C(Nc1cc(Cl)c(Cl)cc1NC(=O)c1cccc(-c2ccccc2)c1O)c1cccc(-c2ccccc2)c1O [TCMDC-139548] | 2.84 |
| COc1ccc2nc(N=C3NC4(c5ccccc5)NC(=Nc5nc6ccc(OC)cc6[nH]5)NC4(c4ccccc4)N3)[nH]c2c1.O=C(O)C(F)(F)F (centres unmarked) [TCMDC-139632] | 529.58 |
| CC(Cc1ccc(CNC(=O)c2ccc(CC(C)NCCc3cccc(Cl)c3)cc2)cc1)NCCc1cccc(Cl)c1 (centres unmarked) [TCMDC-139659] | 2.62 |
| CC(=O)N(Cc1ccc(CC(C)NCCc2cccc(Cl)c2)cc1)Cc1ccc(CC(C)NCCc2cccc(Cl)c2)cc1 (centres unmarked) [TCMDC-139678] | 3.52 |
| c1cc(Nc2nc(-c3ccc(-c4csc(Nc5ccncc5)n4)cc3)cs2)ccn1 [TCMDC-139725] | 77.95 |
| CC(Cc1ccc(C(=O)Nc2ccc(CC(C)NCCc3cccc(Cl)c3)cc2)cc1)NCCc1ccc(C(F)(F)F)cc1 (centres unmarked) [TCMDC-139790] | 4.10 |
| CC(Cc1ccc(NS(=O)(=O)c2ccc(CC(C)NCCc3cccc(Cl)c3)cc2)cc1)NCCc1cccc(Cl)c1 (centres unmarked) [TCMDC-139797] | 2.37 |
| CC(CCCCCC(=O)Nc1ccc(CC(C)NCCc2cccc(Cl)c2)cc1)NCCc1cccc(Cl)c1 (centres unmarked) [TCMDC-139800] | 1.83 |
| CCOc1ccccc1CCNC(C)Cc1ccc(C(=O)Nc2ccc(CC(C)NCCc3cccc(Cl)c3)cc2)cc1 (centres unmarked) [TCMDC-139805] | 2.33 |
| CC(Cc1ccc(NC(=O)c2ccc(CC(C)NCc3ccc(Cl)cc3)cc2)cc1)NCCc1cccc(Cl)c1 (centres unmarked) [TCMDC-139810] | 4.67 |
| CCCCCCCN1CC[C@@H](CCCc2ccnc3ccc(OCCN4CCNCC4)cc23)[C@@H](CC)C1.Cl [TCMDC-139817] | 2.63 |
| CC(Cc1ccc(NC(=O)c2ccc(CNCCCCc3ccccc3)cc2)cc1)NCCc1cccc(Cl)c1.Cl (centres unmarked) [TCMDC-139866] | 1.76 |

| Compound | Selectivity ratio |
| --- | --- |
| CC(Cc1ccc(NC(=O)c2ccc(CNCCc3ccccc3)cc2)cc1)NCCc1cccc(Cl)c1.Cl (centres unmarked) [TCMDC-139867] | 2.02 |
| CCCCCCCN1CC[C@@H](CCCc2ccnc3ccc(OC)cc23)[C@@H](CNC)C1.O=C(O)C(=O)O [TCMDC-139875] | 8.04 |
| Cc1oc(-c2ccc(Cl)cc2)cc1C(=O)NCCC1CCN(CCCCCNC(=O)/C=C/c2ccc(Cl)c(Cl)c2)CC1 [TCMDC-140009] | 1.80 |
| CC(Cc1ccc(OCCCCOc2ccccc2)cc1)NCCC1CCCN1C (centres unmarked) [TCMDC-140017] | 5.62 |
| COc1cccc(CCNC(C)Cc2ccc(OCCCCOc3ccccc3)cc2)c1 (centres unmarked) [TCMDC-140020] | 0.97 |
| Nc1ccc2[nH]cc(C3CCN(CC4CCN(C(=O)/C=C/c5ccc(Cl)c(Cl)c5)CC4)CC3)c2n1 [TCMDC-140061] | 3.33 |
| Nc1ccc2[nH]cc(C3CCN(CCC4CCN(C(=O)/C=C/c5ccc(Cl)c(Cl)c5)CC4)CC3)c2n1 [TCMDC-140062] | 6.29 |
| Nc1ccc2[nH]cc(C3CCN(CC4CCC(NC(=O)/C=C/c5ccc(Cl)c(Cl)c5)CC4)CC3)c2n1 (centres unmarked) [TCMDC-140064] | 18.13 |
| O=C(/C=C/c1ccc(Cl)c(Cl)c1)N1CCC(CN2CCC(c3c[nH]c4ccncc34)CC2)CC1 [TCMDC-140074] | 6.11 |
| CC(=O)Nc1ccc2[nH]cc(C3CCN(CC4CCN(C(=O)/C=C/c5ccc(Cl)c(Cl)c5)CC4)CC3)c2n1 [TCMDC-140112] | 9.15 |
| CC(=O)Nc1ccc2[nH]cc(C3CCN(CC4CCC(NC(=O)/C=C/c5ccc(Cl)c(Cl)c5)CC4)CC3)c2n1 (centres unmarked) [TCMDC-140114] | 7.76 |
| CN(CCCCN)Cc1ccc(-c2ccc(Cl)cc2)cc1 [TCMDC-140123] | 2.25 |
| Nc1cc2c(C3CCN(CC4CCN(C(=O)/C=C/c5ccc(Cl)c(Cl)c5)CC4)CC3)c[nH]c2cn1 [TCMDC-140133] | 3.16 |
| COc1ccc(-c2ccccc2)cc1NC(=S)NC1CCC(CN2CCC(c3c[nH]c4ccccc34)CC2)CC1 (centres unmarked) [TCMDC-140182] | 3.33 |
| CC(C)(CN)c1nc(-c2ccc(Cl)c(O)c2)c(-c2ccncc2)[nH]1.Cl [TCMDC-140369] | 2.31 |
| CCN(CC)CCN(Cc1ccc(-c2ccc(Cl)cc2)cc1)C(=O)Cn1cc(CN(C)C)c(=O)nc1SCc1ccc(F)cc1 [TCMDC-140406] | 4.77 |
| CN1CCN(CCCNCc2ccccc2-c2cccc(CNCc3ccc4c(c3)OCO4)c2)CC1.O=C(O)C(F)(F)F [TCMDC-140476] | 0.92 |
| CN1CCN(CCCN(Cc2cccc(-c3ccc(CNC4CCCC4)cc3)c2)C(=O)/C=C/c2ccccc2)CC1.O=C(O)C(F)(F)F [TCMDC-140544] | 5.67 |
| CC(C)(C)CNCC(C)(C)c1nc(-c2ccc(Cl)c(O)c2)c(-c2ccncc2)[nH]1.Cl [TCMDC-140549] | 11.51 |
| CN1CCN(CCCN(Cc2cccc(-c3ccc(CNCCc4ccccc4)cc3)c2)C(=O)c2cccs2)CC1.O=C(O)C(F)(F)F [TCMDC-140568] | 3.50 |
| CN1CCN(CCCNCc2cccc(-c3ccc(CNCCc4ccccc4)cc3)c2)CC1 [TCMDC-140643] | 4.15 |
